Data reported in patent publication US8445677B2, “Substituted pyrimidyl guanidine derivatives having anticancer activity” (University of Southern California, priority 2008, dated 2013).
Some of these results come from one statement about several compounds together.

Columns and labels:
SkBr-3 = assay: MTT cytotoxicity assay (Example 2); format: cell-based, human; details: 72 h
Source text: (§1) Human breast cancer cell lines MDA-MB-435 and SkBr-3 were purchased from the American Type Culture Collection (Manassas, Va.). The HCT116 P53+/+ and HCT116 P53−/− cell lines were kindly provided by Dr. Bert Vogelstein (Johns Hopkins Medical Institutions, Baltimore, Md.). The HEY human ovarian carcinoma cell line was kindly provided by Dr. Louis Dubeau (University of Southern California Norris Cancer Center). Cells were maintained as monolayer cultures in media supplemented with 10% fetal bovine serum (Gemini-Bioproducts, Woodland, Calif.) and 2 mmo/lL-glutamine at 37° C. in a humidified atmosphere of 5% C02. To remove the adherent cells from the flask for passaging and counting, cells were washed with PBS without calcium or magnesium, incubated with a small volume of 0.25% trypsin-EDTA solution (Sigma-Aldrich, St. Louis, Mo.) for 5-10 min, and washed with culture medium and centrifuged. All experiments were performed using cells in exponential growth stage. Cells were routinely checked for mycoplasma contamination using a PCR-based assay (Stratagene, Cambridge, UK).
(§2) Stock solutions (10 mM) of all compounds were prepared in DMSO and stored at −20° C. Further dilutions were made fresh in cell-culture media just prior to cell treatment.
(§3) Cytotoxicity was assessed by a 3-(4,5-dimethylthiazol-2-yl)-2,5-diphenyltetrazolium bromide (MTT) assay as previously described.^23 Cells were seeded in 96-well plates and allowed to attach overnight. Cells were subsequently treated with continuous exposure to the corresponding drug for 72 h. An MTT solution (at a final concentration of 0.5 mg/ml) was added to each well, and cells were incubated for 4 h at 37° C. After removal of the medium, DMSO was added and the absorbance was read at 570 nm. All assays were performed in triplicate. The IC50 was determined for each drug from a plot of log (drug concentration) versus percentage of cells killed.

[1] = test system: panel of cancer cell lines; assay: MTT cytotoxicity, panel of cancer cell lines (Example 2); format: cell-based; details: MTT assay
Source text: as §1, with “Cells were routinely checked for mycoplasma contamination using a PCR-based assay (Stratagene, Cambridge, UK).” left out
(§4) Cytotoxicity was assessed by a 3-(4,5-dimethylthiazol-2-yl)-2,5-diphenyltetrazolium bromide (MTT) assay as previously described.^23 Cells were seeded in 96-well plates and allowed to attach overnight. […] After removal of the medium, DMSO was added and the absorbance was read at 570 nm. […] The IC50 was determined for each drug from a plot of log (drug concentration) versus percentage of cells killed.

HCT116 p53+/+ = assay: MTT cytotoxicity assay (Example 2); format: cell-based; details: 72 h
Source text: as §1, with “Cells were routinely checked for mycoplasma contamination using a PCR-based assay (Stratagene, Cambridge, UK).” left out
as §4

HEY = assay: MTT cytotoxicity assay (Example 2); format: cell-based, human; details: 72 h
Source text: as §1, §2, §3

Question: How did the IC50 (SkBr-3; listed as SMD18) turn out when `COC(=O)/C=C1/N=C(Nc2nc3ccccc3s2)NC1=O` [5-SMD18] was run?
Answer: < 10 µM

Question: `CC(C)c1cc(=O)[nH]c(Nc2nc3ccccc3s2)n1` [8-SMD18-14] was tested. Which “cytotoxicity / activity at doses” value [1] did it give?
Answer: < 10 µM

Question: Which results are given for `CCOC(=O)C1CCN(Cc2ccc(O)c3ncccc23)CC1` [10-SMD58]?
Answer: IC50 (HCT116 p53+/+; listed as SMD58): < 10 µM; IC50 (HEY; listed as SMD58): < 10 µM; IC50 (SkBr-3; listed as SMD58): < 10 µM

Question: What does the source list for `Cc1cc(C)nc(NC(=N)Nc2cc(Oc3ccccc3)ccc2Cl)n1` [1-SMD6]?
Answer: IC50 (HCT116 p53+/+; listed as SMD6): < 10 µM; IC50 (HEY; listed as SMD6): < 10 µM
